Source: patent US20070148201A1
No constants are given. Whether binding was seen depends on the method and setting. Some results given as binding are weak or reduced against the parent protein; the word gives no strength.

Sequences of proteins named here, by UniProt entry; tags and fusion partners are left off. A change or cut given only in a name is not applied to a line headed by its entry. Residues count along the entry.
UniProt P02791: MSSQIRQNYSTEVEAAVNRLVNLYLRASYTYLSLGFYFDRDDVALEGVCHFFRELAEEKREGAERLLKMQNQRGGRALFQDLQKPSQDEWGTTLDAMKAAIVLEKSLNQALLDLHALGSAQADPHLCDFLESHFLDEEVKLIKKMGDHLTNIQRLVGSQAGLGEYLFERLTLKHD
UniProt Q8MIP0: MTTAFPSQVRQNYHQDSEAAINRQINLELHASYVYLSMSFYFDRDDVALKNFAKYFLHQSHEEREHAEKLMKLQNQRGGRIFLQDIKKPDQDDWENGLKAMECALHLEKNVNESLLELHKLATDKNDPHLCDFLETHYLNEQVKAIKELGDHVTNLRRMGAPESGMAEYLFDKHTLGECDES
UniProt P29965, residues 47-261: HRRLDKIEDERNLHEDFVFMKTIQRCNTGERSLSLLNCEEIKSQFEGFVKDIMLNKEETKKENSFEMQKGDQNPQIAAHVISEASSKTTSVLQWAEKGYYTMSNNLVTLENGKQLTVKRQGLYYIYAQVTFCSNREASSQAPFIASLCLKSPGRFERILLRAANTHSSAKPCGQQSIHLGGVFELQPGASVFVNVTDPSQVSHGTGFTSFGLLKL
UniProt Q08722: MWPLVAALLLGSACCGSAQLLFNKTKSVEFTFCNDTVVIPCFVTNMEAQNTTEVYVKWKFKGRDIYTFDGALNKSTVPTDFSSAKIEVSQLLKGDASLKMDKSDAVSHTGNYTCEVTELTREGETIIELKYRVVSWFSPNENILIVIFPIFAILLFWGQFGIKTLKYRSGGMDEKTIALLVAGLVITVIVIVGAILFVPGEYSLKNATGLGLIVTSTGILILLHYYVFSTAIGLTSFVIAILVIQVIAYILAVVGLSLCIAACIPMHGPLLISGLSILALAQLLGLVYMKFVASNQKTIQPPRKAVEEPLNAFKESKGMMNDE

Experiments:
[1] = target: T1, type I horse ferritin (horse) (UniProt P02791+Q8MIP0); assay: secondary high-throughput ELISA screening, crude cell extract, ferritin coated on plate
[2] = target: T1, type I horse ferritin (horse); assay: ELISA, ferritin coated on plate (FIG. 8)
[3] = target: T1, type I horse ferritin (horse); assay: ELISA: ferritin coated on the plate, BBP mutein titrated 0-1000 nM, detected with anti-T7 antibody-HRP, fluorescence (Example 12)
[4] = target: extracellular domain of human CD154 (human) (UniProt P29965); assay: colony screening, mutein as Strep-tag II/albumin-binding domain fusion held on HSA membrane, 100 nM digoxigenin-conjugated CD154, anti-digoxigenin Fab-AP detection
[5] = target: extracellular domain of human CD47 (amino acids 1 to 119 of the mature protein, Cys15 to Ala) with Strep-tag II (human) (UniProt Q08722); assay: phage-ELISA screening, mutein displayed on phagemids (pIII fusion), CD47 coated on plate, anti-M13-HRP detection
[6] = target: extracellular domain of human CD47 (amino acids 1 to 119 of the mature protein, Cys15 to Ala) with Strep-tag II (human) (UniProt Q08722); assay: phagemid ELISA screening, BBP mutein displayed on phagemids, CD47 immobilized on plate, anti-M13 antibody-HRP detection
[7] = target: extracellular domain of human CD47 (amino acids 1 to 119 of the mature protein, Cys15 to Ala) with Strep-tag II (human) (UniProt Q08722); assay: ELISA: CD47 coated on the plate, BBP mutein titrated 0-2000 nM, detected with anti-T7 antibody-HRP, fluorescence (Example 8)
[8] = target: extracellular domain of human CD47 (amino acids 1 to 119 of the mature protein, Cys15 to Ala) with Strep-tag II (human) (UniProt Q08722); assay: ELISA, CD47 coated on plate (FIG. 6)
[9] = target: extracellular domain of human CD154 (human) (UniProt P29965); assay: ELISA, CD154 coated on plate (FIG. 11)
[10] = target: extracellular domain of human CD154 (human) (UniProt P29965); assay: ELISA: CD154 coated on the plate, BBP mutein titrated 0-2000 nM, detected with anti-Strep-tag II antibody-HRP, fluorescence (Example 17)

Binder	binding [1]	binding [2]	binding [3]	binding [4]	other results
BBP mutein Fer-D24 (designed binder) DVYHDGACPEVKPVDNFDWSQYHGKWWEVAKYPSKKGKQGKCGWAEYTPEGKSVKVSRYDVIPCLESFMEGTAYPVGDSKIGKIYHSRTKPGRTKKTVFNVPSTDNKNYIIGYSCVYPEGRKGHRDHVWVLSRSMVLTGEAKTAVENYLIGSPVVDSQKLVYSDFSEAACKVNN	binds	–	–	–	–
BBP mutein Fer-I21 (designed binder) DVYHDGACPEVKPVDNFDWSQYHGKWWEVAKYPNQKEKWGKCGWAEYTPEGKSVKVSNYHVIKRPERFIEGTAYPVGDSKIGKIYHSLTRLGKTKENVFNVLSTDNKNYIIGYYCLYPEGWKGHKDFVWVLSRSMVLTGEAKTAVENYLIGSPVVDSQKLVYSDFSEAACKVNN	binds	binds	binds	–	–
BBP mutein CD154-13-10-2 (designed binder) DVYHDGACPEVKPVDNFDWSQYHGKWWEVAKYPNGTEESGKCGWAEYTPEGKSVKVSNYHVITQGEKFIEGTAYPVGDSKIGKIYHSLTRPGLTKENVFNVLSTDNKNYIIGYYCDYMECKKGHEDFVWVLSRSMVLTGEAKTAVENYLIGSPVVDSQKLVYSDFSEAACKVNN	–	–	–	binds	–
BBP mutein CD47-G6 (designed binder) DVYHDGACPEVKPVDNFDWSQYHGKWWEVAKYPNRREKFGKCGWAEYTPEGKSVKVSNYHVIRWGERFIEGTAYPVGDSKIGKIYHSLTLPGYTKENVFNVLSTDNKNYIIGYYCKYLERLKGHADFVWVLSRSMVLTGEAKTAVENYLIGSPVVDSQKLVYSDFSEAACKVNN	–	–	–	–	binding [5]: binds; binding [6]: binds; binding [7]: binds; binding [8]: binds
BBP mutein CD154-13-10-4 (designed binder) DVYHDGACPEVKPVDNFDWSQYHGKWWEVAKYPNSHETGGKCGWAEYTPEGKSVKVSNYHVITPHERFIEGTAYPVGDSKIGKIYHSLTWIGTTKENVFNVLSTDNKNYIIGYYCSYSEAGKGHQDFVWVLSRSMVLTGEAKTAVENYLIGSPVVDSQKLVYSDFSEAACKVNN	–	–	–	binds	binding [9]: binds; binding [10]: binds
BBP mutein CD154-13-10-1 (designed binder) DVYHDGACPEVKPVDNFDWSQYHGKWWEVAKYPNQIEQGGKCGWAEYTPEGKSVKVSNYHVIYASEDFIEGTAYPVGDSKIGKIYHSLTSSGVTKENVFNVLSTDNKNYIIGYYCGYREAPKGHMDFVWVLSRSMVLTGEAKTAVENYLIGSPVVDSQKLVYSDFSEAACKVNN	–	–	–	binds	binding [9]: binds; binding [10]: binds

Further lines, with some results ahead:

binding [1]	binding [2]	binding [3]	binding [4]	Binder	other results
binds	binds	binds	–	BBP mutein Fer-N22 (designed binder) DVYHDGACPEVKPVDNFDWSQYHGKWWEVAKYPNGGESPGKCGWAEYTPEGKSVKVSNYHVIKKRERFIEGTAYPVGDSKIGKICHSLTWSGLTKENVFNVLSTDNKNYIIGYYCKYKERKKGHGDFVWVLSRSMVLTGEAKTAVENYLIGSPVVDSQKLVYSDFSEAACKVNN	–
binds	binds	binds	–	BBP mutein Fer-N21 (designed binder) DVYHDGACPEVKPVDNFDWSQYHGKWWEVAKYPSNRGSKGKCGWAEYTPEGKSVKVSRYDVIPRLEAFMEGTAYPVGDSKIGKIYHSRTSKGKTKKTVFNVLSTDNKNYIIGYSCIYNERYKGHYDHVWVLSRSMVLTGEAKTAVENYLIGSPVVDSQKLVYSDFSEAACKVNN	–
binds	binds	binds	–	BBP mutein Fer-O20 (designed binder) DVYHDGACPEVKPVDNFDWSQYHGKWWEVAKCPSGKGRAGKCGWAEFTPEGKSVKVSRYDVIPAPELFMEGTAYPVGDPKIGKIYHSRTNKGLTKKTVFNVLSTDNKNYIIGYSCKYGEDQKGHKDHVWVLSRSMVLTGEAKTAVENYLIGSPVVDSQKLVYSDFSEAACKVNN	–
binds	binds	binds	–	BBP mutein Fer-P4 (designed binder) DVYHDGACPEVKPVDNFDWSQYHGKWWEVAKYPSKGGEKGKCGWAEYTPEGKSVKVSRYDVILSSEPFMEGTAYPVGDSKIGKIYHSRTKKGETKKTVFNVLSTDNKNYIIGYSCGYCECRKGHADHVWVLSRSMVLTGEAKTAVENYLIGSPVVDSQKLVYSDFSEAACKVNN	–
